According to the supplement of paper PMC12823440, “Inhibitors supercharge kinase turnover through native proteolytic circuits” (Nature, 2025):
Where a name gives a salt, the structure may show the parent alone. The list shows a part of the results. The calls rarely recur for the same compound in another form.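 In K562 cells expressing nanoluciferase-fused kinases, luminescence was recorded at 4 h intervals between 2 and 18 h, normalized as percent of control with DMSO at 100% and a positive control at 0%. A significant (2 sigma) signal drop marks a time point as decreased. The authors' rule for a hit is not shown and takes in more than the number of time points.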

Protein sequences, listed by entry. Tags and fused reporters are not part of them.
UniProt P07949, whole entry, looked up: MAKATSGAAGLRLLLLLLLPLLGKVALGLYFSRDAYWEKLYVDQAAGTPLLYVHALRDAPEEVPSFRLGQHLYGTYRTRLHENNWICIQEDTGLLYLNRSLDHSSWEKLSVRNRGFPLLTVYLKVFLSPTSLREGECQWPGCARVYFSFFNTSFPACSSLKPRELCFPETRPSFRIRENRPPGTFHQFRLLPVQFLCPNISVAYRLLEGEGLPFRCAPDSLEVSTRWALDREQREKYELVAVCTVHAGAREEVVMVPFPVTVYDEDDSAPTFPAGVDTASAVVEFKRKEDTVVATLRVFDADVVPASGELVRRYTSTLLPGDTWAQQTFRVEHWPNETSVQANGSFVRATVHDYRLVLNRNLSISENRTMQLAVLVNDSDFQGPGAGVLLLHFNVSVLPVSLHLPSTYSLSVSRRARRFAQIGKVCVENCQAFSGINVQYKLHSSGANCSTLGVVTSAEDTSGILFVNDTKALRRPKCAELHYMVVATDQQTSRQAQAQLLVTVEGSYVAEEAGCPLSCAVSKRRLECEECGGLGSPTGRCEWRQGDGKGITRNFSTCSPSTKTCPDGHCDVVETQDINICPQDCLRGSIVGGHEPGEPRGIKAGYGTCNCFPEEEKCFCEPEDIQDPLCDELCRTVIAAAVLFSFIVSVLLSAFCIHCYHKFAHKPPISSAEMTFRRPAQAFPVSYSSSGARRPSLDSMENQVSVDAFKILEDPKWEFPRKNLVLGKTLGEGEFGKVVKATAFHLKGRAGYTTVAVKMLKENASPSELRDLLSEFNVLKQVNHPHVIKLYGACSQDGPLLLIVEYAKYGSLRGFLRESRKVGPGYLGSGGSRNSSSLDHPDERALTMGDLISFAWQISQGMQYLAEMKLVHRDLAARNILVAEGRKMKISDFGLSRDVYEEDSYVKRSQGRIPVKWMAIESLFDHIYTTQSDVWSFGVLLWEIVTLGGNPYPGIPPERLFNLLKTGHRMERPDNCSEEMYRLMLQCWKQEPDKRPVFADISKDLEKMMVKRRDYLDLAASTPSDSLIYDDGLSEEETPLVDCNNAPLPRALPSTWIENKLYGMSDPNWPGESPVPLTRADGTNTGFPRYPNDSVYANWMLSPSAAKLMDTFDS

target: RET (UniProt P07949); experiment: number of time points (of 5) at which kinase-Nluc abundance scored as decreased, DMSO-normalised (count); higher = more persistent destabilization; conditions: K562; 2-18 h

SMILES	number of time points
COc1ccc(Cn2cc(C(=O)N=Nc3c(O)[nH]c4c(C)cccc34)nn2)cc1 [MARK4 inhibitor 1] (10 µM)	0
COc1cc([N+](=O)[O-])ccc1S(=O)(=O)N1C[C@@H](CN2CCN(c3ccccn3)CC2)[C@H](c2cccc(F)c2)C1 (relative stereo) (10 µM)	0
Cc1cc(Nc2nc(N[C@@H](C)c3ccc(F)cc3)c(C#N)cc2F)n[nH]1 (10 µM)	0
Cc1ccc(S(=O)(=O)/C=C/C#N)cc1 (10 µM)	0
Cc1c(CN2CCN(S(C)(=O)=O)CC2)sc2c(N3CCOCC3)nc(-c3cnc(N)nc3)nc12 (2.5 µM)	0
COc1ccc(-c2ccc3c(N4CCOC[C@@H]4C)nc(N4CCOC[C@@H]4C)nc3n2)cc1CO (2.5 µM)	4
CCN(CC)S(=O)(=O)c1ccc(OC)c(N2CCN(C(=O)c3ccc(F)cc3C(F)(F)F)CC2)c1 (10 µM)	0
CC1CN(C(=O)Nc2ccc(Cl)c(Cl)c2)C(=Nc2ccc(F)cc2)S1 (centres undefined) (10 µM)	0
COCCO[C@@H]1[C@H](O)[C@@H](CO)O[C@H]1n1cnc2c(=O)[nH]c(N)nc21 [2′-O-(2-Methoxyethyl)guanosine] (10 µM)	0
COc1cc(F)c(F)c(Nc2ccc(I)cc2F)c1NS(=O)(=O)C1(C[C@H](O)CO)CC1 [Refametinib] (10 µM)	0
CC(C)=CC[C@H](O)C1=CC(=O)c2c(O)ccc(O)c2C1=O [(-)-Alkannin] (2.5 µM)	0
C[C@@]1(O)CCC[C@H]1n1c(=O)c(C(F)F)cc2cnc(NC3CCN(S(C)(=O)=O)CC3)nc21 (2.5 µM)	0
CS(=O)(=O)c1ccc(-c2noc(C(F)(F)F)c2-c2ccccc2)cc1 (10 µM)	0
COc1ccc2[nH]cc(/C=C3\C(=O)Nc4ccc(NC(=O)CCN5CCCCC5)cc43)c2c1 (2.5 µM)	0
O=C(Nc1ccc(F)cc1F)[C@H](NC(=S)Nc1cc(C(F)(F)F)cc(C(F)(F)F)c1)c1ccccc1 (2.5 µM)	0
CC(C)CN[C@H]1CS(=O)(=O)C[C@@H]1S(=O)(=O)c1ccc(Cl)cc1 (10 µM)	0
COc1ccc(C2CC(c3ccccc3)=NN2c2ccc(S(N)(=O)=O)cc2)cc1 (centres undefined) (10 µM)	0
CC/C=C\C/C=C\C/C=C\CCCCCCCC(=O)O [α-Linolenic acid] (10 µM)	0
O=C(Nc1nc2ccccc2[nH]1)c1cccc(-n2cccc2)c1 (10 µM)	0
COc1ncc(-c2nc(N3CCOCC3)nc3c(CN4CCC(C(C)(C)O)CC4)cc(F)cc23)cc1NS(C)(=O)=O [Linperlisib] (10 µM)	0

Among those listed so far, two have a cyano group:
SMILES	number of time points
Cc1cc(Nc2nc(N[C@@H](C)c3ccc(F)cc3)c(C#N)cc2F)n[nH]1 (10 µM)	0
Cc1ccc(S(=O)(=O)/C=C/C#N)cc1 (10 µM)	0

Next part.

SMILES	number of time points
COc1ccc([C@H]2c3[nH]c4ccc(Cl)cc4c3CCN2C(=O)Oc2ccc(Cl)cc2)cc1 (2.5 µM)	0
COc1c(NC(=O)C(=O)c2ccc(OCCN3CCOCC3)c3ccccc23)cc(C(C)(C)C)cc1NS(C)(=O)=O (2.5 µM)	0
COc1ccc([C@@H]2CC(=O)c3c(O)cc(O)cc3O2)cc1O [Hesperetin] (10 µM)	0
N#Cc1cccc(-c2c[nH]c3ncnc(N4CCOCC4)c23)c1 (10 µM)	0
C/C(=C1/C(=O)Nc2ccc(NC(N)=O)cc21)c1ccc[nH]1 (10 µM)	0
Nc1ncnc2c1c(-c1ccc(Oc3ccccc3)cc1)nn2C1CCNCC1 [N-piperidine Ibrutinib (hydrochloride)] (10 µM)	0
N#Cc1ccc2ncnc(NC3CCC(N4CCOCC4)CC3)c2c1 (centres undefined) (10 µM)	0
CC(=O)c1c(C)c2cnc(Nc3ccc(N4CCN(CCCCNC(=O)COc5cccc6c5C(=O)N(C5CCC(=O)NC5=O)C6=O)CC4)cn3)nc2n(C2CCCC2)c1=O (centres undefined) (10 µM)	0
CC(C)=CC(=O)CCC(=O)N1CCN(Cc2cc3nc(-c4cccc5[nH]ncc45)nc(N4CCOCC4)c3s2)CC1 (10 µM)	0
Cc1ccc(S(=O)(=O)Nc2ccccc2C=Nc2ccccc2NS(=O)(=O)c2ccc(C)cc2)cc1 (10 µM)	0
NCCN1CCN(C/C=C/C(=O)N2CCC[C@@H](n3nc(-c4ccc(Oc5ccccc5)cc4)c4c(N)ncnc43)C2)CC1 [Ibrutinib-MPEA] (10 µM)	0
O=C(CNC(=O)c1ccc(-c2ccccc2)cc1)NC1CCCc2ccccc21 (centres undefined) [TAO Kinase inhibitor 1] (10 µM)	0
CC(C)CN(CC(=O)N1CCN(CC(OCc2ccc3ccccc3c2)c2ccc(Cl)cc2Cl)CC1)CC(C)C (centres undefined) [LYN-1604 (dihydrochloride)] (2.5 µM)	0
CO[C@H]1C[C@@H]2CC[C@@H](C)[C@@](O)(O2)C(=O)C(=O)N2CCCC[C@H]2C(=O)O[C@H]([C@H](C)C[C@@H]2CC[C@@H](O)[C@H](OC)C2)CC(=O)[C@H](C)/C=C(\C)[C@@H](O)[C@@H](OC)C(=O)[C@H](C)C[C@H](C)/C=C/C=C/C=C/1C [Rapamycin] (10 µM)	0
Cc1ccc(Nc2cc(-c3cccc(N4C(=O)c5ccccc5C4=O)c3)ncn2)cc1NS(C)(=O)=O (10 µM)	0
Nc1cc(Nc2ccc(S(N)(=O)=O)cc2)ncn1 (10 µM)	0
CCOc1cc(C(=O)N2CCC(N3CCN(C)CC3)CC2)ccc1Nc1ncc2c(n1)N(C1CCCC1)c1ccccc1C(=O)N2C (10 µM)	0
COCCOc1ccc(-c2cn(-c3ccccc3)c3nc[nH]c(=O)c23)cc1 (10 µM)	0
Cc1cc(O)c(C(C)C)cc1N=O [Poloxime] (10 µM)	0
